Measurements reported in article PMC7862700.
The entries are a selection whose mix differs from that of the whole data set. At the low end of the ranking the order means little.

Amino acid sequences for entries named in this document (tags omitted). A change or cut given only in a name is not applied to a line headed by its entry.
UniProt Q01892: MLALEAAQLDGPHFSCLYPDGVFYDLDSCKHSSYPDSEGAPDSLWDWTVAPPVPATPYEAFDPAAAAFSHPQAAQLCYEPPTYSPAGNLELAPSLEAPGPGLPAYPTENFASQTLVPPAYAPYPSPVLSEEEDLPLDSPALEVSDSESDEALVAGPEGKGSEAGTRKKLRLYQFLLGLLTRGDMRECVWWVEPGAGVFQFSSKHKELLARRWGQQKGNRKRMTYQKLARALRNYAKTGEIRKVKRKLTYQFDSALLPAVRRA
UniProt P41161: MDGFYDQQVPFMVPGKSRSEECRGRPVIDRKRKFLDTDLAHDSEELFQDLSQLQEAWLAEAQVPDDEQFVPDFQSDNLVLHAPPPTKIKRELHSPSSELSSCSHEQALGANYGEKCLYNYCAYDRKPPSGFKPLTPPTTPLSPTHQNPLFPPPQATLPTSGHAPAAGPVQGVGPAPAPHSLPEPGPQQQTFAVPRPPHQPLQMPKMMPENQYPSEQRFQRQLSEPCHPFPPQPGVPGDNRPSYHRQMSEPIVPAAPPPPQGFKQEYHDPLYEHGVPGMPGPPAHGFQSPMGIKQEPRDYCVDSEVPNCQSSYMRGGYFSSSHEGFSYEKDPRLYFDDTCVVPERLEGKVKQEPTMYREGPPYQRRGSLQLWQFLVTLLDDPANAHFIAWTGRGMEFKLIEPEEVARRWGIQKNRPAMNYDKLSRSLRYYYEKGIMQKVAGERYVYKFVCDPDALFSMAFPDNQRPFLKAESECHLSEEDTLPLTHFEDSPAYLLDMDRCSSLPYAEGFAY
UniProt Q99607: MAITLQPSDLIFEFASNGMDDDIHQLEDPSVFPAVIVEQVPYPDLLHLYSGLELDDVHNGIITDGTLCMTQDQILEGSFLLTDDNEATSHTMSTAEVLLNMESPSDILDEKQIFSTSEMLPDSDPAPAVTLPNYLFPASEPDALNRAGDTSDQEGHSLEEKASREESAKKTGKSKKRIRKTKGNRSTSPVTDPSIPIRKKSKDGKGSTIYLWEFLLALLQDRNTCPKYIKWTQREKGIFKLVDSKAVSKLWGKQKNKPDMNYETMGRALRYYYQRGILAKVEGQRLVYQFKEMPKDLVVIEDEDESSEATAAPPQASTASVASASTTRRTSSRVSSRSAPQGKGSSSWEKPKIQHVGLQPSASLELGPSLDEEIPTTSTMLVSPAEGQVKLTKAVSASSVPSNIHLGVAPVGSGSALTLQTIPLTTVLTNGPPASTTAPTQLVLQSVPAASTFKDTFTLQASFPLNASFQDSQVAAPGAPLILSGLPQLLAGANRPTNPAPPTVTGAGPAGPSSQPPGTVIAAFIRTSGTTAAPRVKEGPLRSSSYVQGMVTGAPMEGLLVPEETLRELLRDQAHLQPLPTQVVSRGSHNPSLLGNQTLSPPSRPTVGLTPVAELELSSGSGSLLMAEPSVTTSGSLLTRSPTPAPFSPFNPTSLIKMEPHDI

Experiments:
Assay in all cases: DAPPL (digital affinity profiling via proximity ligation, sequencing)
Conditions in all cases: 10 mM Tris-HCl pH 7.5, 50 mM NaCl, 1 mM DTT, 4% glycerol, room temperature, 30 min; GST-TFs on glutathione beads, 16-mer random dsDNA library, 0.1% …; high values mean tight binding; double strand, one strand shown; scale: fold enrichment (6-mer frequency, TF over GST control)
FLI1 = biological target: T1, FLI1 (UniProt Q01543)
T1 sequence: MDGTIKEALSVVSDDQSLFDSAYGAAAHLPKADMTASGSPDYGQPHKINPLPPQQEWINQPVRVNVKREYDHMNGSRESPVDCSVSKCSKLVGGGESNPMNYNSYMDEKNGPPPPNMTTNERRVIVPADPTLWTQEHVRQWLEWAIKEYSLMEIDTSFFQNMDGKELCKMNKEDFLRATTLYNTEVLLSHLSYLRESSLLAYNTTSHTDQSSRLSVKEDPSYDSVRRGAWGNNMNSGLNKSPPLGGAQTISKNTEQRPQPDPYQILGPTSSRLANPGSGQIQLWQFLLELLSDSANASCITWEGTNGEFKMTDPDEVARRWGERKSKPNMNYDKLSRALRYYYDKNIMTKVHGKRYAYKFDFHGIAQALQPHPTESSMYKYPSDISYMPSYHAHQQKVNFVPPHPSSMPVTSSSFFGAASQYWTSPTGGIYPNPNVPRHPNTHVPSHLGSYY

EHF = biological target: T2, EHF (UniProt Q9NZC4)
T2 sequence: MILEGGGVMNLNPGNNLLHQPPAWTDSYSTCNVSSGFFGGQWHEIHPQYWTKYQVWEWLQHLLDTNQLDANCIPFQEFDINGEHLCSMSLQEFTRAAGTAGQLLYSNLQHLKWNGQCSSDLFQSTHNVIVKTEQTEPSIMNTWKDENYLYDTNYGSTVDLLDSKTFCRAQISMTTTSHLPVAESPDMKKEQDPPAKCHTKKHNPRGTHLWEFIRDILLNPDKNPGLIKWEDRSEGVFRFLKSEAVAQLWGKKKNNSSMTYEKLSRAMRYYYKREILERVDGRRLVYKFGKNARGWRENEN

SPIB = SPIB (UniProt Q01892)
ETV5 = ETV5 (UniProt P41161)
ELF4 = ELF4 (UniProt Q99607)
ETV2 = biological target: T3, ETV2 (UniProt O00321)
T3 sequence: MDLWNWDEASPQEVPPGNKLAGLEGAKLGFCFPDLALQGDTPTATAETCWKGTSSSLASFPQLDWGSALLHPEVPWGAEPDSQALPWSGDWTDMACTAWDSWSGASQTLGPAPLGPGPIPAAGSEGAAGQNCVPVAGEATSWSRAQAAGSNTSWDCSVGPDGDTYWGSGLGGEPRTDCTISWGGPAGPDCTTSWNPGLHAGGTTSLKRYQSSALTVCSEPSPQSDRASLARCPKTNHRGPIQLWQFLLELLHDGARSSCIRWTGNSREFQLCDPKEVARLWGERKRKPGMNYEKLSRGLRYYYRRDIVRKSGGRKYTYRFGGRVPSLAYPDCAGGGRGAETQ

ETV3L = biological target: T4, ETV3L (UniProt Q6ZN32)
T4 sequence: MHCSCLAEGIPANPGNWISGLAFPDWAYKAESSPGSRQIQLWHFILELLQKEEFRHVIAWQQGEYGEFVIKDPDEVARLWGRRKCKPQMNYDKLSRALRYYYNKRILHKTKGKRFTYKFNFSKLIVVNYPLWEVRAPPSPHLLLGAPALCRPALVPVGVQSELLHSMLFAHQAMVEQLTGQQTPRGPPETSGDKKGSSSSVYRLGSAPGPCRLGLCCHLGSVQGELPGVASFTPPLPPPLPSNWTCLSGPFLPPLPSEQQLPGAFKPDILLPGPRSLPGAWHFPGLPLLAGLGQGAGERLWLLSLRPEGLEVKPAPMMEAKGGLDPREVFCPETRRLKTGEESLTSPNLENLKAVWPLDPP

Sequence	binding signal (FLI1)	binding signal (EHF)	binding signal (SPIB)	binding signal (ETV5)	binding signal (ELF4)	binding signal (ETV2)	binding signal (ETV3L)
AGTGAA	0.882	0.992	0.813	0.942	0.897	0.888	0.901
GGCATG	0.883	0.795	0.853	0.801	0.879	0.942	0.892
GGTGCC	0.706	0.726	0.765	0.791	0.74	0.696	0.826
CACAGG	0.828	0.88	0.994	0.888	0.933	0.964	0.93
CACGTG	0.619	0.636	0.691	0.617	0.592	0.449	0.692
GACCGT	0.487	0.4	0.427	0.416	0.444	0.483	0.45
ACAACG	0.878	0.965	0.915	0.91	0.982	0.813	0.982
GTGAAG	0.567	0.598	0.601	0.572	0.543	0.521	0.564
GGGTCG	0.582	0.562	0.57	0.618	0.58	0.577	0.585
GAGGAT	0.629	0.547	0.525	0.606	0.568	0.585	0.584
AGTCAG	0.499	0.464	0.456	0.49	0.509	0.49	0.454
CATCGG	0.7	0.698	0.707	0.615	0.69	0.614	0.725
GAGGAG	0.221	0.196	0.202	0.204	0.218	0.179	0.224
GCGAGG	0.598	0.566	0.614	0.653	0.589	0.572	0.554
CGGCGC	0.618	0.616	0.649	0.547	0.651	0.597	0.695
GTAAAG	0.955	0.908	0.903	0.952	0.844	0.955	0.897
TGAAGT	0.79	0.779	0.76	0.707	0.784	0.788	0.736
GGGTAG	0.766	0.566	0.691	0.664	0.617	0.725	0.634
ACTAGT	0.887	0.908	0.84	0.896	0.882	0.947	0.856
GGACCC	0.871	0.836	0.799	0.889	0.813	0.888	0.837

Looked up above:
GGTGCC – binding signal (EHF): 0.726
CACAGG – binding signal (FLI1): 0.828
